Experimental data taken from PMC12579238.
No constants are given. Whether binding was seen depends on the method and setting. In cells and extracts the contact can be indirect. Here binding means that the protein was enriched with, or labelled near, the bait; the list need not be complete. Each block holds one binder with its values, some of them ahead of it.

Target: T1, CLN7 (human (endogenous in SH-SY5Y)) (UniProt Q8NHS3)
T1 sequence: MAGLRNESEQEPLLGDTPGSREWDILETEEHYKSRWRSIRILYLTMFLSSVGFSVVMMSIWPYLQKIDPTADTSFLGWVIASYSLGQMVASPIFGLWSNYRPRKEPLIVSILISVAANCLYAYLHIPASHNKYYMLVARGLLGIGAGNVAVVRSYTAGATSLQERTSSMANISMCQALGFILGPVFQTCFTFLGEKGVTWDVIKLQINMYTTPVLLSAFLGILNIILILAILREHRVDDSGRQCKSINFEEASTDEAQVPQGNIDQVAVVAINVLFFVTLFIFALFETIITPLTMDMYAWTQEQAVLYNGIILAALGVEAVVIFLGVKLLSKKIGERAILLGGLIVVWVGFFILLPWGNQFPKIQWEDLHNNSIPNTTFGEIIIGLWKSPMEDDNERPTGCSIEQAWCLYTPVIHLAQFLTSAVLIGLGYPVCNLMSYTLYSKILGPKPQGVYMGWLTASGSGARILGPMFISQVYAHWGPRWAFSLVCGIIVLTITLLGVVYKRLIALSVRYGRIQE
Assay: affinity purification with mass spectrometry; endogenous CLN7 immunoprecipitated from 2.5 mg SH-SY5Y lysate with a polyclonal anti-CLN7 antibody raised against L9 (351-421aa, Proteintech) on G-sepharose beads; IgG as non-specific binding control; 4 independent replicates; cells under steady state culture conditions

binding: binds
B1: NHSL2 (protein, UniProt Q5HYW2 1-1225)
chain: MPFYRRTVVPQRLCPRNPPQQLAELRDVSHLAALSLLRQLADLCGHSLALLEDLEGHLLALGRRTDSLYRRTVRLRRRLPCRLLGPEEDEEELAAANSGRENATATAHSRSSWRQPVNVFLSSGRPPSVEELLREAQLNLQSLLQEEYEEQYSEARLVGQTFRSSDEATKPTPNPRPQSARRLEFILMPTKRQLSEDETTTQGVRAPEASLSLSTTADKQTAWNSLFPLPILEEKRWPQLCSTQSDIVPINISGQQFDKHASLRHSLFNTETAVNPKSTLRRRRTIIGFSNFSQRDQGHSNSPAGSVAHSTTSDIRPSHSVPEGVHGRVAVGQDARFPSLTSPVLRTPSSEPDEPHQARSGPNPPGMESMGMVYSVPSSCNGPTESTFSTSWKGDAFTYMTPSATSQSNQVNENGKNPSCGNSWVSLNKVPPLVPKEAATLLVARDNPAGCSGSAGYPERLIQQRHMPERPSKIGLLTSGTSRLETGPGGASRFRERSLSVPTDSGTTDVDYDEEQKANEACALPFASTSSEGSNSADNIASLSAQQEAQHRRQRSKSISLRKAKKKPSPPTRSVSLVKDEPGLLPEGGSALPKDQRPKSLCLSLEHQGHHSSHPDAQGHPAIPNHKDPESTQFSHHWYLTDWKSGDTYQSLSSSSTATGTTVIECTQVQGSSESLASPSTSRATTPSQLSIEVEAREISSPGRPPGLMSPSSGYSSQSETPTPTVSMSLTLGHLPPPSSSVRVRPVVPERKSSLPPTSPMEKFPKSRLSFDLPLTSSPNLDLSGMSISIRSKTKVSRHHSETNFGVKLAQKTNPNQPIMPMVTQSDLRSVRLRSVSKSEPEDDIESPEYAEEPRAEEVFTLPERKTKPPVAEKPPVARRPPSLVHKPPSVPEEYALTSPTLAMPPRSSIQHARPLPQDSYTVVRKPKPSSFPDGRSPGESTAPSSLVFTPFASSSDAFFSGTQQPPQGSVEDEGPKVRVLPERISLQSQEEAEKKKGKIPPPVPKKPSVLYLPLTSPTAQMEAYVAEPRLPLSPIITLEEDTKCPATGDDLQSLGQRVTSTPQADSEREASPLGSSVEPGTEEKSLISDKTAEWIAEDDDDVFVASRTTEDLFTVIHRSKRKLLGWKEPGEAFVGGRTSSHSPIKNTAESPISESTATAGSGSSANLDAGRNDDFKALLQKKGSKATPRSRPSAAELLKTTNPLARRIIAQFSKDYETTDNPST

binding: binds
B2: YTHDC2 (protein, UniProt Q9H6S0 1-1430)
chain: MSRPSSVSPRQPAPGGGGGGGPSPCGPGGGGRAKGLKDIRIDEEVKIAVNIALERFRYGDQREMEFPSSLTSTERAFIHRLSQSLGLVSKSKGKGANRYLTVKKKDGSETAHAMMTCNLTHNTKHAVRSLIQRFPVTNKERTELLPKTERGNVFAVEAENREMSKTSGRLNNGIPQIPVKRGESEFDSFRQSLPVFEKQEEIVKIIKENKVVLIVGETGSGKTTQIPQFLLDDCFKNGIPCRIFCTQPRRLAAIAVAERVAAERRERIGQTIGYQIRLESRVSPKTLLTFCTNGVLLRTLMAGDSTLSTVTHVIVDEVHERDRFSDFLLTKLRDLLQKHPTLKLILSSAALDVNLFIRYFGSCPVIYIQGRPFEVKEMFLEDILRTTGYTNKEMLKYKKEKQQEEKQQTTLTEWYSAQENSFKPESQRQRTVLNVTDEYDLLDDGGDAVFSQLTEKDVNCLEPWLIKEMDACLSDIWLHKDIDAFAQVFHLILTENVSVDYRHSETSATALMVAAGRGFASQVEQLISMGANVHSKASNGWMALDWAKHFGQTEIVDLLESYSATLEFGNLDESSLVQTNGSDLSAEDRELLKAYHHSFDDEKVDLDLIMHLLYNICHSCDAGAVLIFLPGYDEIVGLRDRILFDDKRFADSTHRYQVFMLHSNMQTSDQKKVLKNPPAGVRKIILSTNIAETSITVNDVVFVIDSGKVKEKSFDALNFVTMLKMVWISKASAIQRKGRAGRCRPGICFRLFSRLRFQNMLEFQTPELLRMPLQELCLHTKLLAPVNCPIADFLMKAPEPPPALIVRNAVQMLKTIDAMDTWEDLTELGYHLADLPVEPHLGKMVLCAVVLKCLDPILTIACTLAYRDPFVLPTQASQKRAAMLCRKRFTAGAFSDHMALLRAFQAWQKARSDGWERAFCEKNFLSQATMEIIIGMRTQLLGQLRASGFVRARGGGDIRDVNTNSENWAVVKAALVAGMYPNLVHVDRENLVLTGPKEKKVRFHPASVLSQPQYKKIPPANGQAAAIKALPTDWLIYDEMTRAHRIANIRCCSAVTPVTILVFCGPARLASNALQEPSSFRVDGIPNDSSDSEMEDKTTANLAALKLDEWLHFTLEPEAASLLLQLRQKWHSLFLRRMRAPSKPWSQVDEATIRAIIAVLSTEEQSAGLQQPSGIGQRPRPMSSEELPLASSWRSNNSRKSSADTEFSDECTTAERVLMKSPSPALHPPQKYKDRGILHPKRGTEDRSDQSSLKSTDSSSYPSPCASPSPPSSGKGSKSPSPRPNMPVRYFIMKSSNLRNLEISQQKGIWSTTPSNERKLNRAFWESSIVYLVFSVQGSGHFQGFSRMSSEIGREKSQDWGSAGLGGVFKVEWIRKESLPFQFAHHLLNPWNDNKKVQISRDGQELEPLVGEQLLQLWERLPLGEKNTTD

binding: binds
B3: AUTS2 (protein, UniProt Q8WXX7 1-1259)
chain: MDGPTRGHGLRKKRRSRSQRDRERRSRGGLGAGAAGGGGAGRTRALSLASSSGSDKEDNGKPPSSAPSRPRPPRRKRRESTSAEEDIIDGFAMTSFVTFEALEKDVALKPQERVEKRQTPLTKKKREALTNGLSFHSKKSRLSHPHHYSSDRENDRNLCQHLGKRKKMPKALRQLKPGQNSCRDSDSESASGESKGFHRSSSRERLSDSSAPSSLGTGYFCDSDSDQEEKASDASSEKLFNTVIVNKDPELGVGTLPEHDSQDAGPIVPKISGLERSQEKSQDCCKEPIFEPVVLKDPCPQVAQPIPQPQTEPQLRAPSPDPDLVQRTEAPPQPPPLSTQPPQGPPEAQLQPAPQPQVQRPPRPQSPTQLLHQNLPPVQAHPSAQSLSQPLSAYNSSSLSLNSLSSSRSSTPAKTQPAPPHISHHPSASPFPLSLPNHSPLHSFTPTLQPPAHSHHPNMFAPPTALPPPPPLTSGSLQVAGHPAGSTYSEQDILRQELNTRFLASQSADRGASLGPPPYLRTEFHQHQHQHQHTHQHTHQHTFTPFPHAIPPTAIMPTPAPPMFDKYPTKVDPFYRHSLFHSYPPAVSGIPPMIPPTGPFGSLQGAFQPKTSNPIDVAARPGTVPHTLLQKDPRLTDPFRPMLRKPGKWCAMHVHIAWQIYHHQQKVKKQMQSDPHKLDFGLKPEFLSRPPGPSLFGAIHHPHDLARPSTLFSAAGAAHPTGTPFGPPPHHSNFLNPAAHLEPFNRPSTFTGLAAVGGNAFGGLGNPSVTPNSMFGHKDGPSVQNFSNPHEPWNRLHRTPPSFPTPPPWLKPGELERSASAAAHDRDRDVDKRDSSVSKDDKERESVEKRHSSHPSPAPVLPVNALGHTRSSTEQIRAHLNTEAREKDKPKERERDHSESRKDLAADEHKAKEGHLPEKDGHGHEGRAAGEEAKQLARVPSPYVRTPVVESARPNSTSSREAEPRKGEPAYENPKKSSEVKVKEERKEDHDLPPEAPQTHRASEPPPPNSSSSVHPGPLASMPMTVGVTGIHPMNSISSLDRTRMMTPFMGISPLPGGERFPYPSFHWDPIRDPLRDPYRELDIHRRDPLGRDFLLRNDPLHRLSTPRLYEADRSFRDREPHDYSHHHHHHHHPLSVDPRREHERGGHLDERERLHMLREDYEHTRLHSVHPASLDGHLPHPSLITPGLPSMHYPRISPTAGNQNGLLNKTPPTAALSAPPPLISTLGGRPVSPRRTTPLSAEIRERPPSHTLKDIEAR
